# Assay results as given in patent US20100249038A1, “ANTAGONISTS OF THE RECEPTOR FOR ADVANCED GLYCATION END-PRODUCTS (RAGE)” (Board of Regents, University of Texas System, priority 2007, published 2010).
# Chains of the proteins cited; added tags and fusions are not shown. Residues count along the entry.
# UniProt Q15109, residues 23-342: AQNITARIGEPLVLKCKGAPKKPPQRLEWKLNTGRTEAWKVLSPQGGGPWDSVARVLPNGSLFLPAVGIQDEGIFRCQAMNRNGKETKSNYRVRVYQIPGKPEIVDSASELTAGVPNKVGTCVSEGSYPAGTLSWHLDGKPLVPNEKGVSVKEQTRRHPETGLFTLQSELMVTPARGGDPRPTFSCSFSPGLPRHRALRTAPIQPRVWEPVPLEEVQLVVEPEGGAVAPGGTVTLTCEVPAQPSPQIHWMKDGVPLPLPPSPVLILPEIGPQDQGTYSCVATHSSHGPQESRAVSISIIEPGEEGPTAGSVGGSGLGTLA
# No constants are given. Whether binding was seen depends on the method and setting. Some binding calls cover weakened binding; strength is not graded here.
# B1: Peptide 14 (SEQ ID NO: 18, …) (peptide)
# peptide: KLKEKYEKDI
# B2: Peptide 15 (SEQ ID NO: 19, …) (peptide)
# peptide: LKEKYEKDI
# B3: Peptide of SEQ ID NO: 1 (…) (peptide)
# peptide: ELKVLMEKEL
# B4: Peptide 2 (SEQ ID NO: 7, …) (peptide)
# peptide: LKVLMEKEL
# B5: Peptide 4 (SEQ ID NO: 8, …) (peptide)
# peptide: ALKVLMEKEL
# B6: Peptide 5 (SEQ ID NO: 9, …) (peptide)
# peptide: EAKVLMEKEL
# B7: Peptide 6 (SEQ ID NO: 10, …) (peptide)
# peptide: ELAVLMEKEL
# B8: Peptide 7 (SEQ ID NO: 11, …) (peptide)
# peptide: ELKALMEKEL
# B9: Peptide 8 (SEQ ID NO: 12, …) (peptide)
# peptide: EAKVAMEKEL
# B10: Peptide 9 (SEQ ID NO: 13, …) (peptide)
# peptide: EAKVLAEKEL
# B11: Peptide 10 (SEQ ID NO: 14, …) (peptide)
# peptide: EAKVLMAKEL
# B12: Peptide 11 (SEQ ID NO: 15, …) (peptide)
# peptide: EAKVLMEAEL
# B13: Peptide 12 (SEQ ID NO: 16, …) (peptide)
# peptide: ELKVLMEKAL
# B14: Peptide 13 (SEQ ID NO: 17, …) (peptide)
# peptide: ELKVLMEKEA
# Target: extracellular domain of RAGE peptide (sRAGE) (UniProt Q15109)
# Assay: competition ELISA: sRAGE coated, competitor S100P (100 ng)
row,Binder,binding
1,B1,binds
2,B2,binds
3,B3,binds
4,B4,binds
5,B5,binds
6,B6,binds
7,B7,binds
8,B8,binds
9,B9,binds
10,B10,binds
11,B11,binds
12,B12,binds
13,B13,binds
14,B14,binds

# Target: extracellular domain of RAGE peptide (sRAGE) (UniProt Q15109)
# Assay: competition ELISA: sRAGE coated, competitor amphoterin (100 ng)
row,Binder,binding
1,B1,binds
2,B2,binds
3,B3,binds
4,B4,binds
5,B5,binds
6,B6,binds
7,B7,binds
8,B8,binds
9,B9,binds
10,B10,binds
11,B11,binds
12,B12,binds
13,B13,binds
14,B14,binds

# Target: extracellular domain of RAGE peptide (sRAGE) (UniProt Q15109)
# Assay: competition ELISA: sRAGE coated, competitors amphoterin and S100P
row,Binder,binding
1,B1,binds
2,B2,binds

# Target: Purified RAGE (UniProt Q15109)
# Assay: competition ELISA: purified RAGE coated, competitor S100P, peptide 50 µM
row,Binder,binding
1,B3,binds
